These results are taken from article doi:10.1101/2023.04.09.536178.

The chains behind the UniProt entries cited, without tags or fusion partners. Where a name states a change or a piece, a line headed by the entry shows the natural chain unless it says otherwise.
UniProt P15311: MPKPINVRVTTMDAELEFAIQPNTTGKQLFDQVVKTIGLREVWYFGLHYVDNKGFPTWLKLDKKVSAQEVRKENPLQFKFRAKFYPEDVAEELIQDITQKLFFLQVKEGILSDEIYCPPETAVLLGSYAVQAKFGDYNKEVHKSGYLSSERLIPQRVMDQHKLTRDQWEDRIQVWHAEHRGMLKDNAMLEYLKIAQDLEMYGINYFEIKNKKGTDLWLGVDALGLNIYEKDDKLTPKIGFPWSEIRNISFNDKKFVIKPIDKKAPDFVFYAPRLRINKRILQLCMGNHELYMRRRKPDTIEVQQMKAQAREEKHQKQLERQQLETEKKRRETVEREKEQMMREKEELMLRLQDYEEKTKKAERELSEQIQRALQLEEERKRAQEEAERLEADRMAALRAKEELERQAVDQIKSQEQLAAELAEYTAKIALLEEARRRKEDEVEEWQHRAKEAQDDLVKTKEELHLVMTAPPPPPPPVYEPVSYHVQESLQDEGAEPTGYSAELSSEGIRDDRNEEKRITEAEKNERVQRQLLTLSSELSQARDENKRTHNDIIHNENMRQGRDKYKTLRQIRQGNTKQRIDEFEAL

These are yes or no findings as the source states them, for the method shown. Binding seen in cells or lysates may run through a third protein. Some entries that bind do so weakly or less than the wild type. Where a sequence is shown, tags or fusion partners need not be part of it.

This test deals with T1, Myc-tagged Atg7 (Atg7-Myc) (UniProt Q9D906).
T1 sequence: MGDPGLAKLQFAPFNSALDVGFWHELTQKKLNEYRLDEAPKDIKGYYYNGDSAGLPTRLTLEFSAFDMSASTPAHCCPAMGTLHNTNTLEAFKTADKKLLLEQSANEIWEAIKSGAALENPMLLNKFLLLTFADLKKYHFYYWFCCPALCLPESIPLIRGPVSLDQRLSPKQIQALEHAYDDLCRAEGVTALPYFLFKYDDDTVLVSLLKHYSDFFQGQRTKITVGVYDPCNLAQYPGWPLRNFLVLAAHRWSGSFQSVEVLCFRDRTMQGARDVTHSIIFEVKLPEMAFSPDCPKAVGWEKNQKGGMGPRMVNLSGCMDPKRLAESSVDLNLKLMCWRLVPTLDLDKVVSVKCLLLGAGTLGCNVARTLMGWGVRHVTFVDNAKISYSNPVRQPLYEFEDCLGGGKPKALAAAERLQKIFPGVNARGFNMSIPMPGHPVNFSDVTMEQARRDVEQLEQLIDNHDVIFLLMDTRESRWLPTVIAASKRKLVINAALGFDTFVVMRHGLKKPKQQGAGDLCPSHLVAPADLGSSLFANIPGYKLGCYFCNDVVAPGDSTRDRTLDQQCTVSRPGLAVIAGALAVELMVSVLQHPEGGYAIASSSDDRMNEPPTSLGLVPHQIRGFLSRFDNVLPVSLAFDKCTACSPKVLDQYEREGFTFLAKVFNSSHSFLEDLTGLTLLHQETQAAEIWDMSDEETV
The test is described as follows: co-IP; HEK293T co-transfected with Ezrin-HA and Atg7-Myc cDNA, lysed 36 h later (25 mM HEPES, 150 mM KCl, 1.5 mM MgCl2, 0.5% NP40, 10% glycerol, protease and phosphatase inhibitors); anti-c-Myc magnetic beads 6 h at 4 C; detection with anti-HA and anti-Myc on SimpleWestern Jess.

With “HA-tagged WT Ezrin (Ezrin-HA) (from UniProt P15311 1-586)”, the binding entry is on record as “binds”.

Take “HA-tagged phospho-dead Ezrin T567A (from UniProt P15311 1-586)”: the binding entry is given as “binds”.
